These are yes or no findings as the source states them, for the method shown. In cells and extracts the contact can be indirect. Some results given as binding are weak or reduced against the parent protein; the word gives no strength. Sequences can lack the tags named with a protein.
Legend:
[1] = molecular target: GST-eRF3 (yeast (S. cerevisiae)) (UniProt P05453); assay: GST pull-down from yeast cytoplasmic extract, anti-FLAG immunoblot (figure legend)
[2] = molecular target: GST-eRF3 (yeast (S. cerevisiae)) (UniProt P05453); assay: GST pull-down from yeast cytoplasmic extract, anti-FLAG immunoblot (discussion of Example 1)
[3] = molecular target: GST-eRF3 (yeast (S. cerevisiae)) (UniProt P05453); assay: GST pull-down from yeast cytoplasmic extract, anti-FLAG immunoblot

Amino acid sequences for entries named in this document (tags omitted).
UniProt P05453: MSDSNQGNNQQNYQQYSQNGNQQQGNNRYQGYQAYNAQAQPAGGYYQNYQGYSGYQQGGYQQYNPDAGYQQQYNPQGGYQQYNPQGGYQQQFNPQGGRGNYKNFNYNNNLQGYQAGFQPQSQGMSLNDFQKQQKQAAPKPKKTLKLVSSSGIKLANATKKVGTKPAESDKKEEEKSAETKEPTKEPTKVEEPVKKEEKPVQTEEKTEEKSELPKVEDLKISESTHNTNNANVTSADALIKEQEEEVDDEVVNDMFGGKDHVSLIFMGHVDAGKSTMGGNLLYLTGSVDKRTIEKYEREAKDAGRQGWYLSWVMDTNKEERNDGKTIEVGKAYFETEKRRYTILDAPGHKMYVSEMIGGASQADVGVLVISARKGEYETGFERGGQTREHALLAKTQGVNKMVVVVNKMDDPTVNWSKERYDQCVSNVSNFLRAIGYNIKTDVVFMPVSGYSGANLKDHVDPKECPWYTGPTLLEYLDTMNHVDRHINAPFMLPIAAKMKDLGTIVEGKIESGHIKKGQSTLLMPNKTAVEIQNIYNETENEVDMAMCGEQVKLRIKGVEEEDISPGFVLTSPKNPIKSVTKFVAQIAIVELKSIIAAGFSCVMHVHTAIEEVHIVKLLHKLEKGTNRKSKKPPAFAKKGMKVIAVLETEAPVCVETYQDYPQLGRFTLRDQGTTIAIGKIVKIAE

Measured: binding

B1: FLAG epitope-tagged Mtt1p (enzyme, yeast (S. cerevisiae), UniProt P32644 1-1121, looked up, not shown: small tags and cut ends)
chain: MDFQCRTCSQAYDAEQMMKHLSSTRHKTVFDTSNDEDICCEECQDKNIHQLQIIRFGGEDMVLLCNSCFRKEYSETERPSTSYSLQNGSILKFWEKYVKVRECCCDECGEESNLNANRNGEVLCDKCLPKSNRAKDFVSEKSGRFLYIYLGLNETQNSTRKPRKKGGRRVGRGKKGRKGAKIKKEKKETFEAKISRIAYEVKKENSTIQSSSSSNLRNFKGFKAVESDPVVAAKVSKSETSRSNPGPSNRNKGKGNKANHKKNSGNGIGKEKERKTNIRNNVRNSQPIPEDRKNTNSHVTTNSGGKGKNESVDKHQLPQPKALNGNGSGSTNTTGLKKGKKDHAGQKTKGNDKTGNKNPREAKLNSAGRKNALGKKSNNQPNKGTSRWTIGSDTESSREPSISPNENTTSITKSRNRNKKASKPTLNEKSKTTTMPKKLETKNQEKNNGKTKDGKLIYEEGEPLTRYNTFKSTLSYPDLNTYLNDYSFALFLEQKLENEFVQNFNILWPRNEKDTAFIINVEKNNNSELEKLLPANLLALGRPAFNERQPFFFCTQDEQKVWYIFIKELSIQRGKYVLLVELFSWNNLSLPTKNGSSQFKLLPTSAQTSRILFAMTRITNPKFIDLLLGQKPIKEIYFDNRLKFSSDKLNRSQKTAVEHVLNNSITILQGPPGTGKTSTIEEIIIQVIERFHAFPILCVAASNIAIDNIAEKIMENRPQIKILRILSKKKEQQYSDDHPLGEICLHNIVYKNLSPDMQVVANKTRRGEMISKSEDTKFYKEKNRVTNKVVSQSQIIFTTNIAAGGRELKVIKECPVVIMDEATQSSEASTLVPLSLPGIRNFVFVGDEKQLSSFSNIPQLETSLFERVLSNGTYKNPLMLDTQYRMHPKISEFPIKKIYNGELKDGVTDEQKAWPGVQHPLFFYQCDLGPESRVRSTQRDIVGFTYENKHECVEIVKIIQILMLDKKVPLEEIGVITPYSAQRDLLSDILTKNVVINPKQISMQQEYDEIELFNAAGSQGTAGSLQNNVINIINGLHVATVDSFQGHEKSFIIFSCVRNNTENKIGFLRDKRRLNVALTRAKHGLIVVGNKNVLRKGDPLWKDYITYLEEQEVIFTDLTAY
binds: all assays above

— patent US6989256
